These are yes or no findings as the source states them, for the method shown. In cells and extracts the contact can be indirect. Some results given as binding are weak or reduced against the parent protein; the word gives no strength. For some of these results: Tags and fused reporters may be left off the sequences shown.
T1: Flag-tagged SNAI2 (UniProt O43623)
T1 sequence: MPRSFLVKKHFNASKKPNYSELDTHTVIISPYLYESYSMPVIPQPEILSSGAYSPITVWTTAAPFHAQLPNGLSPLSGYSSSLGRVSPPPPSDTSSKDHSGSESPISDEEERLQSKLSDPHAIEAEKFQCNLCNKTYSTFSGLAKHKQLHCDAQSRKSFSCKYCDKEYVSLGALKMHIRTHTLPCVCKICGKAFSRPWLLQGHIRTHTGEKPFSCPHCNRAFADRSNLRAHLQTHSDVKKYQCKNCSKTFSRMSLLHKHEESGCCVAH

Sequences of proteins named here, by UniProt entry; tags and fusion partners are left off.
UniProt P40763: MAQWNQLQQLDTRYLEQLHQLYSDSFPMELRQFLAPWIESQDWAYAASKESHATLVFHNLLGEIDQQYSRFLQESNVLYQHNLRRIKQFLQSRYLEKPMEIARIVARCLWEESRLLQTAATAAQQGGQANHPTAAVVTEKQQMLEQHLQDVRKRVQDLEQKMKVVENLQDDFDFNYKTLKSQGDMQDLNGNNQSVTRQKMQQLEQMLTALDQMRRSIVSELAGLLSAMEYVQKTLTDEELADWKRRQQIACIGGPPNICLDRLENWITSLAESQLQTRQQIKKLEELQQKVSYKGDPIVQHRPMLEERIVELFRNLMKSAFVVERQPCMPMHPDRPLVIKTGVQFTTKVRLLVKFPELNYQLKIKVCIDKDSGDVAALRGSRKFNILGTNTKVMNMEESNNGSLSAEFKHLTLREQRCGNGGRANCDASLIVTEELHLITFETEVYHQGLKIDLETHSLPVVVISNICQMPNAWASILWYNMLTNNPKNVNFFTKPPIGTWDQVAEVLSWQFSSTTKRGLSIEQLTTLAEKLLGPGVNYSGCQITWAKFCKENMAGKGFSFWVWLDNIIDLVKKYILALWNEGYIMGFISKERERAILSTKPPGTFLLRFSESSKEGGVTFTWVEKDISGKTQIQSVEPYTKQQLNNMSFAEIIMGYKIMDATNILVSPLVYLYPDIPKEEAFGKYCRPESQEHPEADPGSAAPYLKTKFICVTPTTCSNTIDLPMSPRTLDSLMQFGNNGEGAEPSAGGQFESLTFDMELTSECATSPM
UniProt Q15022: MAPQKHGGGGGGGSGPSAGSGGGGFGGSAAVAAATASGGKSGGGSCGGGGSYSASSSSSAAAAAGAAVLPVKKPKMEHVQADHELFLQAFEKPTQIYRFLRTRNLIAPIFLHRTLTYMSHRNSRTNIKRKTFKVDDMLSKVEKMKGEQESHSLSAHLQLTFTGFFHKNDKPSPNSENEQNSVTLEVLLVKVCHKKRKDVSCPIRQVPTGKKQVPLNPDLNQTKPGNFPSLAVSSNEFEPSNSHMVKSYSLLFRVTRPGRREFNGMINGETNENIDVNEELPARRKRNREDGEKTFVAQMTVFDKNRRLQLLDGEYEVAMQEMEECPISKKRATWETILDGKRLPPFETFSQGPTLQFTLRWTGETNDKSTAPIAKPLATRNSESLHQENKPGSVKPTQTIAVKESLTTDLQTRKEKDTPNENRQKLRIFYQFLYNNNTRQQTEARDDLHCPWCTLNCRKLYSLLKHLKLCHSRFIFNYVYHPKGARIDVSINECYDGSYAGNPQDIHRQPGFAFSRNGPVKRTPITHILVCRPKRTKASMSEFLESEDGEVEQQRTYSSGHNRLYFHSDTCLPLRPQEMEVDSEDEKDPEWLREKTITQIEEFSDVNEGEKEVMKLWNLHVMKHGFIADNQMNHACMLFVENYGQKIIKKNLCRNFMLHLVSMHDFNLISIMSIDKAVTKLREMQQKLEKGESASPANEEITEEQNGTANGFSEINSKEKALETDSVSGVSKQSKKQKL
UniProt Q13547: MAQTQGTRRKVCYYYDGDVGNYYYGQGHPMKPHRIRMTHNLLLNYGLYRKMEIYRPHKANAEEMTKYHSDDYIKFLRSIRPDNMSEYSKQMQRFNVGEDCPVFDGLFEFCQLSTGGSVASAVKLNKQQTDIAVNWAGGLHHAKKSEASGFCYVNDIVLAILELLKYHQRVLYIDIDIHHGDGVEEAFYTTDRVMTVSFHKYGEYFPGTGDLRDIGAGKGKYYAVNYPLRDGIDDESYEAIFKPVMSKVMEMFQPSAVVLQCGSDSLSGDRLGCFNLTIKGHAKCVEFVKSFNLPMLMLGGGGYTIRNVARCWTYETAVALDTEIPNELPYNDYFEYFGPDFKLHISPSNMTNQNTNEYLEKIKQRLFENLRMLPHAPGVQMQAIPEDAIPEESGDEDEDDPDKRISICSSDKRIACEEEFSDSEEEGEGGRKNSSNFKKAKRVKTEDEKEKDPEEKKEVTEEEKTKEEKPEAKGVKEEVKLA

T2: endogenous SNAI2 (human (endogenous in UM-SCC1)) (UniProt O43623)
T2 sequence: T1 sequence

B1: endogenous SNAI2 (protein, UniProt O43623 1-268)
chain: T1 sequence

Legend:
Flag-tagged SNAI2 = target: T1, Flag-tagged SNAI2; assay: co-IP; HEK293T cells with Flag-tagged SNAI2 and HA-tagged SUZ12; lysis in Cellytic buffer, antibody overnight at 4 °C, protein A or G Dynabeads, washes with PBS and 0.1% NP40; which protein was precipitated is not told
[1] = target: Signal transducer and activator of transcription 3 (STAT3) (UniProt P40763); assay: co-IP; STAT3 with SNAI2, SUZ12, HDAC1 and EZH2 (Figure 6E-F); cells and precipitated protein not told; lysis in Cellytic buffer, antibody overnight at 4 °C, protein A or G Dynabeads
[2] = target: T2, endogenous SNAI2 (human (endogenous in UM-SCC1)); assay: co-IP; endogenous proteins in UM-SCC1 cells; IP with SNAI2 and IP with SUZ12; lysis in Cellytic buffer, antibody overnight at 4 °C, protein A or G Dynabeads, washes with PBS and 0.1% NP40
[3] = target: endogenous SUZ12 (human (endogenous in UM-SCC1)) (UniProt Q15022); assay: as above

| Molecule | binding (Flag-tagged SNAI2) | binding [1] | binding [2] | binding [3] |
| --- | --- | --- | --- | --- |
| HA-tagged SUZ12 (from UniProt Q15022 1-739) | binds | – | – | – |
| endogenous SUZ12 (from UniProt Q15022 1-739) | – | binds | binds | – |
| endogenous HDAC1 (from UniProt Q13547 1-482) | – | – | binds | binds |
| B1 | – | binds | – | binds |
